# Values of other authors in patent US20220183969A1, “OCULAR INSERT CONTAINING A GLUCOCORTICOID” (Ocular Therapeutix, Inc., priority 2020, published 2022).
# At least one compound was matched to its structure with a doubt left.
# Details: for Equivalent Dose: established equivalent oral dose; for Relative Potency: oral glucocorticoid potency with reference to cortisol
SMILES,Equivalent Dose,Relative Potency
C[C@H]1C[C@H]2[C@@H]3CCC4=CC(=O)C=C[C@]4(C)[C@@]3(F)[C@@H](O)C[C@]2(C)[C@@]1(O)C(=O)CO [Betamethasone],0.8 mg,25-30
"C[C@H]1C[C@@H]2[C@H]([C@@H](O)C[C@@]3(C)[C@H]2CC[C@]3(O)C(=O)CO)[C@@]2(C)C=CC(=O)C=C12 [Methylprednisolone, methylprednisolone]",4 mg,5-7.5
